Data: publication PMC6695381
Results are given in words; binding and its absence hold for the method and conditions named. For part of these data: In cells and extracts the contact can be indirect. Some entries that bind do so weakly or less than the wild type.

Sequences of proteins named here, by UniProt entry; tags and fusion partners are left off.
UniProt P49069: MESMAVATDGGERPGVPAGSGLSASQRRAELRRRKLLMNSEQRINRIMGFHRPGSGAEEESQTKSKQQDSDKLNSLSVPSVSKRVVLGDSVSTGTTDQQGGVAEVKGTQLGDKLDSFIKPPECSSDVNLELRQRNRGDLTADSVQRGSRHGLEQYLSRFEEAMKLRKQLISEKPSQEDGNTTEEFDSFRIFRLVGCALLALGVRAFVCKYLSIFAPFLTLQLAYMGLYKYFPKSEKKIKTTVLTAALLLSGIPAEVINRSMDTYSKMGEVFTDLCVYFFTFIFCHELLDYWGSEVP

T1: Tryptophan rich basic protein (WRB) (human (endogenous in HeLa)) (UniProt O00258)
T1 sequence: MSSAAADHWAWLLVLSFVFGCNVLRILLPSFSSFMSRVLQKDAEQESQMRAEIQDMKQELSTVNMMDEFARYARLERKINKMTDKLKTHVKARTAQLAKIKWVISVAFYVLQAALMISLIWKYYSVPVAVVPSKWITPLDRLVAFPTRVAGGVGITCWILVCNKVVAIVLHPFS

B1: Tryptophan rich basic protein (WRB) (protein, UniProt O00258 1-174)
chain: T1 sequence

How the values were obtained:
[1] = target: T1, Tryptophan rich basic protein (WRB) (human (endogenous in HeLa)); assay: native gel or EMSA; BN-PAGE (6-15% gradient gels) and immunoblot of HeLa membrane fraction solubilized with 0.5% n-Dodecyl beta-D-maltoside in 500 mM aminocaproic acid, 50 mM Bis-Tris-HCl pH 7.0, 1 mM EDTA
[2] = target: T1, Tryptophan rich basic protein (WRB) (human (endogenous in HeLa)); assay: co-IP; endogenous proteins; HeLa postnuclear supernatant in 0.6% Deoxy Big Chaps, 50 mM Hepes-K+ pH 7.4, 250 mM sorbitol, 70 mM potassium acetate, 5 mM EDTA, 2.5 mM Mg(OAc)2; anti-CAML, anti-WRB or non-immune rabbit IgG plus protein G agarose, overnight at 4 °C; SDS-PAGE/IB
[3] = target: Calcium-modulating cyclophilin ligand (CAML) (human (endogenous in HeLa)) (UniProt P49069); assay: as above

Molecule | binding [1] | binding [2] | binding [3]
Calcium-modulating cyclophilin ligand (CAML) (from UniProt P49069 1-296) | binds | binds | 
B1 |  |  | binds
